We go through 107 sequences from PubChem BioAssay AID1508600 (Functional Genomics Laboratory (NCATS/FGL), 2020).

Hit rate of the full screen: of about 53,000 sequences, about 3,700 (7%) were called active.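 How the source made its calls: active means gene knockdowns whose robust z-score for IL-1 alpha signal is at least 2 or at most -2, so actives lie on both sides; inactive means the rest.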 The list shows a part of the results.

A short description of the assay: Components of the Cytosolic LPS Sensing Pathway: Gene Identification via Genome-wide siRNA Screen.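 Further: robust z of the log signal after scaling to non-targeting control siRNA wells of the plate.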 The note with it: RAW264.7 macrophages, IL-1a HTRF, actives lie on both sides, screened at 100 nM (by protocol), cells primed 5 h with Pam3CSK4 first. The method, boiled down: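 Supernatant IL-1a by HTRF from RAW264.7 cells primed with Pam3CSK4 (5 hours) and transfected with LipidA (24 hour) after 48h siRNA knockdown at 100 nM; cell viability checked with CellTiter-Glo.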
In the case of GCAAGUUAGGCCUUUUAAATT against Cycs, the z-score is inactive: -0.197. To GCCUUACGCACUCUCUAAATT against Col4a2 belongs inactive: 0.0905. To GCCCUUACAUUUUAUACUATT against Zfp93 belongs inactive: 1.1; to GGUGGAUUUGAACCCAAAATT against Dnajc19, inactive: -0.386. Consider GCAUCUGGUAAAAGGAGCATT against Rpap1, for which the z-score is inactive: 0.956. As for GGAAGCCAUUAUACAUGACTT against Uvrag, the z-score is inactive: -0.261.

With GGUAACCUGGAUGGAGAAGTT against Mrps24, the z-score is inactive: -0.466.

As to GGCAGAGGCAGACAAGAUUTT against Scg3, the z-score is inactive: -0.377. For CGUAAGGAAGAUAACUUUUTT against Gatm, the z-score was inactive: -0.312. As for GCACUUAUACUACUUAGUUTT against Abca8a, the z-score is active: 2.4. Turning to UCCUGUUCGUUCCUUUCCUTT against Olfr740, the z-score was inactive: 0.273. As to GGGUGCUAAAGAAUGUAUUTT against Elapor2, the z-score was inactive: 0.521. For CGUACUAUAGUAAAUCCAGTT against Clk1, the z-score was active: 2.4. Under GGAGAAAUUCUUCAAUGAGTT against Syt2 stands inactive: -0.19. As for GCGAAGCGAAUCCUUUUUCTT against Fosl2, the z-score is inactive: 0.0982. On to CGAACCUGUUGACGGAUUCTT against Wnt1, for which the z-score was inactive: 0.563. For GGCCAGAGCAUUUUCUUCATT against Pif1, the z-score was inactive: 0.72. For GGAAAGCACGUCCUCUUUGTT against Gpx5, the z-score is inactive: -0.995.

CCUCAGACUACCUUGUGGUTT against Otub1: the z-score is inactive: -0.216.

For GGCAACCAAUCAAAUUGUGTT against Npepps, the z-score was inactive: -0.192. To GGAUCCUUGUACAGAAAUGTT against Arhgap33 belongs inactive: -0.334.

Regarding CAAAGCCACCUCGCCCUAUTT against Nkx2-6, the z-score is inactive: -0.0586. To GGAAUUAAAUGAACCCAGATT against Arhgap8 belongs active: 2.48; to UACCCGAAUGCAGACAGGATT against Raet1a, inactive: 0.667.

On to CCAUUGUAGUCAGUCAAAUTT against Pip, for which the z-score was inactive: -0.498. On to GGUCCUAUGGAUUAAUGCUTT against Ccn4, for which the z-score is active: 3.46. As to GGAGGAAGAGCUCAUUGCATT against Tnnt1, the z-score was inactive: 0.588.

Consider GGCUGUAGCCAAAUAUCUUTT against Sec62, for which the z-score is inactive: -0.927. Take GGUUAACGAAGGAGAGAAGTT against Rsph9: the z-score is inactive: 0.198. To GGCCAAGGGAAAAAAACCCTT against Pax7 belongs inactive: -1.1. Turning to GACUACACUGAUUUUUCAUTT against Olfr980, the z-score is inactive: -0.369. Under GCACUUGAAUCGAUUGAAUTT against Ppp4r3b stands inactive: -1.46.

As to GGAUAGUUUUGUGUUUGAUTT against Gab2, the z-score is inactive: 0.932. For the sequence CGCAACAGAUAGUAAAUAUTT against Ufsp2, the z-score was inactive: -1.21. For the sequence GGAUGCCAUUUACCGUGCUTT against Olfr418, the z-score is inactive: 1.2. To GGAAGGAGUAUGGCAGGAGTT against Fbxo17 belongs inactive: -0.544. “CGGCAAUUUGAGUUGAAAATT against Ppp1r2-ps9”: the z-score is inactive: -0.571. Regarding GGACUGCUGUCACCAUUUCTT against Gpr132, the z-score is inactive: 0.627. With GCCUGGAUUCAGAAGCUACTT against Ugt1a1, the z-score is inactive: -0.51. On to GGGAAUAAGUAGUAGACUCTT against Zfp948, for which the z-score was inactive: 1.17. For the sequence GGGUGAAGUAGGUGAAAAATT against H2-M10.6, the z-score is inactive: -0.361. In the case of GGUAUAAGACCUUUUCAACTT against Olfr509, the z-score was inactive: -0.393. GGAAAAGAAAGAAGCUUUUTT against Rrp1b: the z-score is inactive: 0.988. For GGAAGAAAUCAUCCACAACTT against Bid, the z-score was inactive: -1.27. Regarding GGCCUUGUGUGCAAUGAGATT against Mfge8, the z-score was inactive: -0.448.

For “GGCUGGACACUUCAAAAUGTT against 4930412M03Rik”, the z-score is inactive: -0.988. Under GCCUCCUGUCAAAGGUUCATT against Cd300c stands inactive: 1.69; under GCCUGCACGAUUGGAAUUATT against Aqr, inactive: 1.56; under GGUGUCUUCAGUUAUAGAUTT against Pard6a, inactive: -0.203. In the case of GGAAGGACAAAGAAAGCCUTT against Fbxw4, the z-score was inactive: -0.286. As for GUCAGAGCUUGAGGAGUUCTT against Aurkaip1, the z-score was inactive: 0.783. On to GGACAAUGUGGUAGUGGACTT against Mvb12a, for which the z-score was inactive: -0.426. Consider GGAAGUGACACGAUUUGAGTT against Snx1, for which the z-score was inactive: -0.804. With CCACGAGAAGUGGAUAUUATT against Plcxd3, the z-score is inactive: -1.1. Consider GGUAGAAAAUGUUUACCCUTT against Gk5, for which the z-score was inactive: -1.07.

With GGAUCUCUACCAUUUGAUUTT against Rps13, the z-score was inactive: -1.75. As to GGCCGUGAUAGUCAGUGACTT against Teddm1b, the z-score is inactive: 0.912. For GGAGAAGAGGACUUUGGUGTT against Opalin, the z-score is inactive: 0.234. As to GCACUUAUGCCAGAUUGGCTT against Ifi35, the z-score was inactive: -1.54.

For CCAUUGAUCCCAUGAUCUUTT against Rreb1, the z-score is inactive: 1.33. Under GGACUCCAGACUUGAAACATT against Uchl5 stands inactive: -1.3. With CCCUAUUCUGCUUUCACUUTT against Sap18, the z-score was inactive: 0.198.

Consider CGAUUAUGAGCACUAUAUUTT against Ddx20, for which the z-score is active: 2.12.

In the case of GGAACUUCGACUCUGAGAUTT against Rmnd5b, the z-score is inactive: -0.00387. Regarding GGCUAUGAGGACUCCUAUGTT against Plekha7, the z-score is active: -2.53. For the sequence CCUAGAGCUGAAGAGAUUATT against Aif1, the z-score was inactive: -0.266. On to AGAGUUGUCCAUGUUCCAGTT against Six3, for which the z-score is inactive: -1.44.

As for CGGAAAAGAUCCCUAUUGUTT against Adam5, the z-score was inactive: 0.373.

In the case of CCAACAACUCUGUAUGCUGTT against Olfr1355, the z-score was inactive: -0.247. For GGCCCUAACAAUUCAUGAUTT against Uba6, the z-score was inactive: -0.574. With GGUAGUGGAUGGGAGCUCATT against Thtpa, the z-score is inactive: -0.255. Regarding GCACUAGUUAGAGAUCUUATT against Stmnd1, the z-score is inactive: 0.842.

Consider GCUUGUCCUAUCUAUUUUATT against Mthfd2, for which the z-score was inactive: 0.419. Take CGCAAAAAUCAGCACAGCUTT against Ptp4a3: the z-score was inactive: 1.96.

Consider GGAGGACUUCUCCUCCUUCTT against Mfsd13a, for which the z-score was inactive: 0.532. For CCCGAGAUGUAUCAUCUAATT against Krcc1, the z-score is inactive: -0.31.

As for GGUCUUGGUCCCUGAGAAATT against Ddit4l, the z-score was inactive: 0.23. Consider GCAAAACUUAUCUGACCUATT against Smn1, for which the z-score is inactive: 0.418. Consider GCCCUGUGCUUGGCAACAUTT against Ssbp3, for which the z-score is active: -2.36. Under GCCCGAUAUCGUGUUUUUCTT against Sirt2 stands inactive: 0.826. As for GGUGAACACCUUUAUGAGGTT against Dguok, the z-score is inactive: 0.563.

“GCCUGACUUUCUUAAAGGCTT against 2810006K23Rik”: the z-score is inactive: 0.82.

GGAUGAACCAAGCUACUGCTT against Gba2: the z-score was inactive: -0.541. With GGCAAAGAAAACCAUGUCCTT against Zfp82, the z-score is inactive: 1.34.

On to GCAGUAAACUCCUAGGUCATT against Mturn, for which the z-score is inactive: -0.269. Consider GGACCUUGGAUUGACAGGUTT against Unkl, for which the z-score is inactive: 0.819. With GGGUUGUUUACAGUGAUCUTT against Fam126b, the z-score was inactive: -0.43. Take GCUUGUACUGCUAAUACUUTT against Pggt1b: the z-score was inactive: 1.9. Take GGAAGUCCAUCAGCUUUAUTT against Wdr78: the z-score is active: 2.29.

In the case of GGCAUUGGUUAAAAAAGUUTT against Otx2, the z-score was inactive: 0.55. As to GCACUUCCUAACUGGUGCUTT against Olfr996, the z-score was inactive: -1.11.

With GGACGAGAUGAACAGCCUCTT against Chkb, the z-score is inactive: 0.0671. For the sequence CGGAAUGUCAAUUUAAAGATT against Adam18, the z-score was inactive: 1.63. On to GGCCCUUCCCAGAUAUGCATT against Gm16367, for which the z-score was inactive: 0.819. To CGGCCAAUUUGCCUUUCUCTT against Hes1 belongs inactive: 1.88. Take GCUUGUAAUGGUUAAUGUATT against Wtap: the z-score was inactive: -0.674.

For the sequence UCGAUGUACUGAGCUAAGGTT against Psme2, the z-score was inactive: 1.28.

Regarding CGUGCCAUAAUACACUAUCTT against Gng5, the z-score is active: 2.79. Consider CGUGUGAAGUAAAGAUGUUTT against Mrpl57, for which the z-score was inactive: 0.212. For the sequence GGAAAACCACUACAAGUUCTT against Steap3, the z-score was inactive: 1.54. On to CCAUGAAGAUUUCUCGUUUTT against Ifrd1, for which the z-score is inactive: 0.232. Turning to AGGAGCUCCUCAAAGCUCUTT against Zfp395, the z-score is inactive: 0.665.

With GCGAAAGUCUACAAAAGAGTT against Thrap3, the z-score was inactive: -0.15. In the case of GCCUUAACUCUUCUGGGAGTT against Stam, the z-score was inactive: 0.537. CCGUAUUGUCACUUGUGGGTT against Arpc1a: the z-score is inactive: 0.479. For GGGAGGAGGACAACAAGUATT against Smap1, the z-score was inactive: -1.26.

Take CCAAUGAUAGACUUUAUACTT against Adgrv1: the z-score was inactive: -0.252.
